This note sets out measurements from publication PMC10870664.

Results are given in words; binding and its absence hold for the method and conditions named. In cells and extracts the contact can be indirect. Some results given as binding are weak or reduced against the parent protein; the word gives no strength.

Test [1] has as its target full-length p62 with a flag tag (HOMO-SQSTM1 -FLAG/His in plent) (human) (UniProt Q13501). Kind of test: co-IP; 293 T cells transfected for 48 h with pcDNA3.1, full-length p62-FLAG/His, △PB1 or △UBA; lysate precipitated with anti-flag antibody, western blot for FN1 and LAMC2. (Immunoblotting shows a protein as a band on a membrane.)
The target in test [2] is SQSTM1/p62 (human (endogenous in HUVEC)) (UniProt Q13501). Kind of test: co-IP; HUVEC lysate (IP lysis buffer with protease inhibitor) incubated overnight at 4 °C with anti-p62 antibody or rabbit IgG, protein agarose beads, four washes with PBS, western blot for FN1 and LAMC2.

B1: Lamininγ2 (protein, UniProt Q13753 22-1193)
chain: TSRREVCDCNGKSRQCIFDRELHRQTGNGFRCLNCNDNTDGIHCEKCKNGFYRHRERDRCLPCNCNSKGSLSARCDNSGRCSCKPGVTGARCDRCLPGFHMLTDAGCTQDQRLLDSKCDCDPAGIAGPCDAGRCVCKPAVTGERCDRCRSGYYNLDGGNPEGCTQCFCYGHSASCRSSAEYSVHKITSTFHQDVDGWKAVQRNGSPAKLQWSQRHQDVFSSAQRLDPVYFVAPAKFLGNQQVSYGQSLSFDYRVDRGGRHPSAHDVILEGAGLRITAPLMPLGKTLPCGLTKTYTFRLNEHPSNNWSPQLSYFEYRRLLRNLTALRIRATYGEYSTGYIDNVTLISARPVSGAPAPWVEQCICPVGYKGQFCQDCASGYKRDSARLGPFGTCIPCNCQGGGACDPDTGDCYSGDENPDIECADCPIGFYNDPHDPRSCKPCPCHNGFSCSVMPETEEVVCNNCPPGVTGARCELCADGYFGDPFGEHGPVRPCQPCQCNNNVDPSASGNCDRLTGRCLKCIHNTAGIYCDQCKAGYFGDPLAPNPADKCRACNCNPMGSEPVGCRSDGTCVCKPGFGGPNCEHGAFSCPACYNQVKIQMDQFMQQLQRMEALISKAQGGDGVVPDTELEGRMQQAEQALQDILRDAQISEGASRSLGLQLAKVRSQENSYQSRLDDLKMTVERVRALGSQYQNRVRDTHRLITQMQLSLAESEASLGNTNIPASDHYVGPNGFKSLAQEATRLAESHVESASNMEQLTRETEDYSKQALSLVRKALHEGVGSGSGSPDGAVVQGLVEKLEKTKSLAQQLTREATQAEIEADRSYQHSLRLLDSVSRLQGVSDQSFQVEEAKRIKQKADSLSSLVTRHMDEFKRTQKNLGNWKEEAQQLLQNGKSGREKSDQLLSRANLAKSRAQEALSMGNATFYEVESILKNLREFDLQVDNRKAEAEEAMKRLSYISQKVSDASDKTQQAERALGSAAADAQRAKNGAGEALEISSEIEQEIGSLNLEANVTADGALAMEKGLASLKSEMREVEGELERKELEFDTNMDAVQMVITEAQKVDTRAKNAGVTIQDTLNTLDGLLHLMDQPLSVDEEGLVLLEQKLSRAKTQINSQLRPMMSELEERARQQRGHLHLLETSIDGILADVKNLENIRDNLPPGCYNTQALEQQ
As to B1, the binding entry in test [1] and in test [2] was “binds” throughout.
